± gives the standard deviation of the averaged measurements. Most values lie at the floor of the assay. Slopes are relative: functional sequences can read slightly below zero.
System: Saccharomyces cerevisiae PS128 hsf1 delta, HSF1(1-493) fusion
Assay: growth estimate (transactivation domain function in HSF1 fusion, heat-shock survival) (a.u. (slope of normalised read count over time)); higher = stronger growth at 37°C, i.e. more transactivation activity
Conditions: library: random library

Substance	growth estimate
LRTGSEEDYACGDAIVGTMA	< -0.25
LRTL	< -0.25
LRTM	< -0.25
LRTRGQPLL	< -0.25
LRTYIS	< -0.25
LRVCSKLSSSGRIRAYSRSC	< -0.25
LRVFVFVMTCGRGRHVAYRC	< -0.25
LRVHPPNWKYFLATVVIEQG	< -0.25
LRVKF	< -0.25
LRVLLPNVQKEWKHEWKGAG	< -0.25
LRVN	< -0.25
LRVPPGV	< -0.25
LRWAYIEVECLAELRDLFSR	< -0.25
LRYILFEP	< -0.25
LSA	-0.248 ± 0.003
LSAGSRRIDFE	< -0.25
LSALFCLCQYR	< -0.25
LSARSTRIVDLER	< -0.25
LSATNELIGTYRPSGLPRHI	< -0.25
LSAVILLD	< -0.25
LSCLAVRGWMMDKRELLEVV	< -0.25
LSCRNVCLL	< -0.25
LSCVGFQLRSKTTFLARTVL	< -0.25
LSCVPAGAA	< -0.25
LSDESGPETECPGGMGVLRG	< -0.25

Part of the list above in another layout.
Substance,growth estimate
LRTRGQPLL,< -0.25
LRVLLPNVQKEWKHEWKGAG,< -0.25
LRYILFEP,< -0.25
LSCRNVCLL,< -0.25

Pulled one by one from the list above (two):
Substance	growth estimate
LSA	-0.248 ± 0.003
LSAGSRRIDFE	< -0.25

More entries follow:

Substance	growth estimate
LSDGCTRVPFQGKRTIPMSV	< -0.25
LSEEPGPVTRSFGLGQRACR	< -0.25
LSEESECQDH	< -0.25
LSEGSGLMANEWVGVPR	< -0.25
LSFRESTSEV	< -0.25
LSFRFGRPSMVAARRPLASV	< -0.25
LSGAPEAELHGI	< -0.25
LSGATRR	< -0.25
LSGLDRILRKPEGMVRGCPC	< -0.25
LSGLEGVARSERIDRHRYAG	< -0.25
LSGLEVPPWS	< -0.25
LSGRRTSDQGESDPATRAPA	< -0.25
LSGSYSSVPCLQVVDGKLLV	< -0.25
LSGTGHKSRG	< -0.25
LSGVHSEASDTNSRIGEVLG	< -0.25
LSGVTH	< -0.25
LSHILSLYNTLTGGRGRGTF	< -0.25
LSHNSREAHL	< -0.25
LSHTVG	< -0.25
LSIAGIPG	< -0.25
LSIRWSRTYLTKCT	< -0.25
LSKGLGGPSV	< -0.25
LSKVSPALLKG	< -0.25
LSL	< -0.25
LSLARSQ	< -0.25

Substance	growth estimate
LSLCMKSLHVHRVCLSGDLG	-0.231
LSLGIMTEVDFVTGVAALRV	< -0.25
LSLRKIDRQVIRRSPTVVQV	< -0.25
LSLTRNQSRTDGKARGDITG	< -0.25
LSLVCKSFSTRGI	< -0.25
LSMVIKLQGV	< -0.25
LSNDHTENRLL	< -0.25
LSNGHQQAR	< -0.25
LSNMAGAICVTPRPTRLCSG	< -0.25
LSPKNWNMRV	< -0.25
LSPLIISRHKFAEFIT	< -0.25
LSPS	< -0.25
LSPTVG	< -0.25
LSQGSGTTASFAWL	< -0.25
LSRACDYHSGGLTATT	< -0.25
LSRCVRDTGKLKRDVPAILM	< -0.25
LSRGFVISSVGHFGTSTDIN	< -0.25
LSRKLNSRTTLGSSVCSPRL	< -0.25
LSRNRVKLGSKTKKVHVTWY	-0.243
LSRQCPT	< -0.25
LSRRGNSLVTTSPWRFFLHV	< -0.25
LSRRNVGMRGGFARRRPPSH	< -0.25
LSRRSIVLRGPRR	< -0.25
LSRTCQTPSSCGPTGSPISP	< -0.25
LSRVKVVSSVPGGSGENTAM	< -0.25

Substance	growth estimate
LSRVSSKSAGAYLEGGRARF	< -0.25
LSRVSTKKLRLNVMCTDGRD	< -0.25
LSSC	< -0.25
LSSGGLCQRGAVTGRAARAA	< -0.25
LSSKVGVRVSLDRSKLVIIR	-0.245
LSSLLGRRTSRFPYGMF	< -0.25
LSSLPQGKGRPGGDMNFAKR	< -0.25
LSSLSGLRAWPVYSAPTSSA	< -0.25
LSSMG	< -0.25
LSSPSLSSRENAHRISEPGR	< -0.25
LST	< -0.25
LSTGCEEVQTERARNHNAAR	< -0.25
LSTGLQPRGEETFGIRLATG	< -0.25
LSTGRYAKVWVLCGELSVTS	< -0.25
LSTKPRLGDDWRPVFQGRHS	< -0.25
LSTLATKLCDSGVFG	< -0.25
LSTLRSKRTLLSSRCVDALA	< -0.25
LSTSNKDRTHRDLGFIGGGL	< -0.25
LSTYIGNRSGSADLPLRANP	< -0.25
LSVGSGV	< -0.25
LSVHSVGRTKQLVWL	< -0.25
LSVKPD	-0.25
LSVRLSFR	< -0.25
LSVVQALVASS	< -0.25
LSWSFYGNR	< -0.25

— the supplement of paper PMC5949888
